Laboratory results: the supplement of paper PMC10849652
This is one part of the list.

Protein sequences, listed by entry. Tags and fused reporters are not part of them. Lines headed by an entry give the natural chain unless they say otherwise; changes in a name come on top.
UniProt P62256: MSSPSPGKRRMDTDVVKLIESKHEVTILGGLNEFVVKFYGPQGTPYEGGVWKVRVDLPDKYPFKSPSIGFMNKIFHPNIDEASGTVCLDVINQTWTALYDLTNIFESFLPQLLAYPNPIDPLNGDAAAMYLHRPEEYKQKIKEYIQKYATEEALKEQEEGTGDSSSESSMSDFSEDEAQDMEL
UniProt Q05086: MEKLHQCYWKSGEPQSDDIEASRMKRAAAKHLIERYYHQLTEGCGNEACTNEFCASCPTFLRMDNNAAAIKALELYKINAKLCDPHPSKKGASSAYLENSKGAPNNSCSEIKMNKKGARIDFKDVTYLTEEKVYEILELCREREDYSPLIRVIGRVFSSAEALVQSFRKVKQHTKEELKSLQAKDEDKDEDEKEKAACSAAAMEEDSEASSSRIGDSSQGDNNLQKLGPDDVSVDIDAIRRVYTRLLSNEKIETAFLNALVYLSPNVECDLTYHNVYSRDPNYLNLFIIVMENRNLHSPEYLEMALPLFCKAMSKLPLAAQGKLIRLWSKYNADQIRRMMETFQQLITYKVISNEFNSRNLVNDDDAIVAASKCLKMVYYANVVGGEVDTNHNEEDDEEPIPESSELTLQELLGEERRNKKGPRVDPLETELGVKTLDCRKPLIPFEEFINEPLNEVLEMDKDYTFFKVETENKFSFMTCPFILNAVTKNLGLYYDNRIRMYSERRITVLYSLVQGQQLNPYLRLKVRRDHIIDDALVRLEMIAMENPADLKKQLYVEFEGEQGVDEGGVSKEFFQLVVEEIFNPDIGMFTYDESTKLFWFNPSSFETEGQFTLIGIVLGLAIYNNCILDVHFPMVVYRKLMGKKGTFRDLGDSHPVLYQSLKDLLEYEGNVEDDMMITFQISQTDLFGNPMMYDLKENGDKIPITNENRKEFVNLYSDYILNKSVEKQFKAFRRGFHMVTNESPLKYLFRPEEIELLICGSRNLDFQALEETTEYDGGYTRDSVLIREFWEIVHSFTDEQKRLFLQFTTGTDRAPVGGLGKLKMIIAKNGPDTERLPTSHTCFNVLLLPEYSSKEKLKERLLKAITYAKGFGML
UniProt Q9UJK0: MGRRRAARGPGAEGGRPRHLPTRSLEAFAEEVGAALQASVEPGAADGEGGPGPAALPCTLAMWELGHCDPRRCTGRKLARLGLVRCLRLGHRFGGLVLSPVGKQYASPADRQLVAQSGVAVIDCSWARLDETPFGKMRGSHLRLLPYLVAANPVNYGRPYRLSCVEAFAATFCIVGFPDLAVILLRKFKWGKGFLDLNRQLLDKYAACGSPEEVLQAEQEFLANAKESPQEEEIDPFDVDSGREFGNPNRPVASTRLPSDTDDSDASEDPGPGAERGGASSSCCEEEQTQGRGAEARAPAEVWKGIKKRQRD
UniProt Q9UJT0: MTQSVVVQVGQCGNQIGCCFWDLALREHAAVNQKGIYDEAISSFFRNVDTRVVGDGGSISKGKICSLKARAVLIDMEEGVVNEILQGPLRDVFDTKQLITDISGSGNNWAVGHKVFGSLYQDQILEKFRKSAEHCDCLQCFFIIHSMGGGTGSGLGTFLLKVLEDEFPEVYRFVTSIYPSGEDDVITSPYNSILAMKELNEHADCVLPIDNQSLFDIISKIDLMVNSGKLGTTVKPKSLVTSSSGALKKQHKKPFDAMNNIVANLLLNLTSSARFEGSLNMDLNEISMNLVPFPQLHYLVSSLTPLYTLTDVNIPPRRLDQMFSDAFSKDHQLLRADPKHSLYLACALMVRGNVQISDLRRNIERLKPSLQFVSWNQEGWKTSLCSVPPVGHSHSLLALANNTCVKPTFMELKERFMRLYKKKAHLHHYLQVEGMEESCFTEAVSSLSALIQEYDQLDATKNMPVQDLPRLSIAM
UniProt Q13630: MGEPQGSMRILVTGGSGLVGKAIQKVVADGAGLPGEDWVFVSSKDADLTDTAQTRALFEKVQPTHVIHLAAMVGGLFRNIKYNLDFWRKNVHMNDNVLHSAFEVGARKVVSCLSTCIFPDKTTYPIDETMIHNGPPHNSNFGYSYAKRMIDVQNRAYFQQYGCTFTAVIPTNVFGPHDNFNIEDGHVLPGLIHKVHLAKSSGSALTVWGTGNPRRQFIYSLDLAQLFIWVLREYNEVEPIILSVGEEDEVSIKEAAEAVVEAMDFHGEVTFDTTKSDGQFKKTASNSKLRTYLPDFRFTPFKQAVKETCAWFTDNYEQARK
UniProt P68363, whole entry, looked up: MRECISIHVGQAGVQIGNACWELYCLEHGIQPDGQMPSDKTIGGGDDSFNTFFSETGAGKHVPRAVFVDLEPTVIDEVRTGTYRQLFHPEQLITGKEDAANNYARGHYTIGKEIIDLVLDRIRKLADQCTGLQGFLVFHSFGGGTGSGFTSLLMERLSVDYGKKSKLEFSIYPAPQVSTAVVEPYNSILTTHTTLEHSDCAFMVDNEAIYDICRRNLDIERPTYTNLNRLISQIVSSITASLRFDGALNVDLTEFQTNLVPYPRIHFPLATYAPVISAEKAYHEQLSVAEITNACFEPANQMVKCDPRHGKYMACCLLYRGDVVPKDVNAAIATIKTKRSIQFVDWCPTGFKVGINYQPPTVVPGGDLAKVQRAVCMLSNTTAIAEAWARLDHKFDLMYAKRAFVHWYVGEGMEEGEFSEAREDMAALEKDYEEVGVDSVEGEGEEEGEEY
UniProt Q6IPR3: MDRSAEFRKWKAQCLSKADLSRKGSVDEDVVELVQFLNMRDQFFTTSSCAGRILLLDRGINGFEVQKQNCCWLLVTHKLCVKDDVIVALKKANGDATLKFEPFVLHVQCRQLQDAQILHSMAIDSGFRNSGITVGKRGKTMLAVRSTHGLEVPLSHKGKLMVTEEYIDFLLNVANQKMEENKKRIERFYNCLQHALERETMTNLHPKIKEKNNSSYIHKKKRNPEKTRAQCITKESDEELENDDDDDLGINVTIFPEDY
UniProt P68036, whole entry, looked up: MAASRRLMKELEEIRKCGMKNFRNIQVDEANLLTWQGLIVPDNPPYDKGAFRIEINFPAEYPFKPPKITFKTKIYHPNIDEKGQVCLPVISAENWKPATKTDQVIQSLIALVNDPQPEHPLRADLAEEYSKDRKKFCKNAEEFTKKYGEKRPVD
UniProt O15042: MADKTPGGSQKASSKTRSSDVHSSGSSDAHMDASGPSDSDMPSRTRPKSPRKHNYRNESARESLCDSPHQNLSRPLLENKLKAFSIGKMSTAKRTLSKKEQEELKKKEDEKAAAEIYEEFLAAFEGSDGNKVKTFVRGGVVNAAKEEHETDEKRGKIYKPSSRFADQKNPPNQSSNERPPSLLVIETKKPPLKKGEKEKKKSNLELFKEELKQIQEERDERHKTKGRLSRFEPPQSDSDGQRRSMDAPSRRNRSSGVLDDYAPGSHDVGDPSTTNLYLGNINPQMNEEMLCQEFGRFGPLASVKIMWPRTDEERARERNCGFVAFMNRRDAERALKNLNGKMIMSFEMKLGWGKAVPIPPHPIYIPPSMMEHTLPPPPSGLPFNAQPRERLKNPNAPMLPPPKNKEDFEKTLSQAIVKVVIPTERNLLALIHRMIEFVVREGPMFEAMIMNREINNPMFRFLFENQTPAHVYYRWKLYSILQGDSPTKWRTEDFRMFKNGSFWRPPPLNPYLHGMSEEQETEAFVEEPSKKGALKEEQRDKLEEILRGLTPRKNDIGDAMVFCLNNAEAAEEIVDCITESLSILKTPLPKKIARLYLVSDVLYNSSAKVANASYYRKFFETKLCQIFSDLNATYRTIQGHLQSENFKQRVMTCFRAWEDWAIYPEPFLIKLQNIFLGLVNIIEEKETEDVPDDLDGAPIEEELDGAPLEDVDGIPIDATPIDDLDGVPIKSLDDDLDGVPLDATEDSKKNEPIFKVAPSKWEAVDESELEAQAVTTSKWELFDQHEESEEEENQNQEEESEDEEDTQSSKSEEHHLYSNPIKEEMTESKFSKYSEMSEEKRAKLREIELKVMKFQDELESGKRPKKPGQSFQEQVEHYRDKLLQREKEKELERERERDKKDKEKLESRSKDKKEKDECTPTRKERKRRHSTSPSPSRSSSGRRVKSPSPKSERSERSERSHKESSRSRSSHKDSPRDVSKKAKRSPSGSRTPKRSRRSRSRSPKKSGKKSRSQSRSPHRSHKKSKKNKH
UniProt P63146, whole entry, looked up: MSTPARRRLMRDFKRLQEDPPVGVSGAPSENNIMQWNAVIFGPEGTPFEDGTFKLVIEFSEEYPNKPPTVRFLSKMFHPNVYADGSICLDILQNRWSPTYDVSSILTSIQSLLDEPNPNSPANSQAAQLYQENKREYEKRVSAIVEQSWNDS
UniProt P10599: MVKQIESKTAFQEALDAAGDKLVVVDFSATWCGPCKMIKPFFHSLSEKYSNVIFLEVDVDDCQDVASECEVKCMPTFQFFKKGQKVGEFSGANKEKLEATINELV
UniProt Q14157: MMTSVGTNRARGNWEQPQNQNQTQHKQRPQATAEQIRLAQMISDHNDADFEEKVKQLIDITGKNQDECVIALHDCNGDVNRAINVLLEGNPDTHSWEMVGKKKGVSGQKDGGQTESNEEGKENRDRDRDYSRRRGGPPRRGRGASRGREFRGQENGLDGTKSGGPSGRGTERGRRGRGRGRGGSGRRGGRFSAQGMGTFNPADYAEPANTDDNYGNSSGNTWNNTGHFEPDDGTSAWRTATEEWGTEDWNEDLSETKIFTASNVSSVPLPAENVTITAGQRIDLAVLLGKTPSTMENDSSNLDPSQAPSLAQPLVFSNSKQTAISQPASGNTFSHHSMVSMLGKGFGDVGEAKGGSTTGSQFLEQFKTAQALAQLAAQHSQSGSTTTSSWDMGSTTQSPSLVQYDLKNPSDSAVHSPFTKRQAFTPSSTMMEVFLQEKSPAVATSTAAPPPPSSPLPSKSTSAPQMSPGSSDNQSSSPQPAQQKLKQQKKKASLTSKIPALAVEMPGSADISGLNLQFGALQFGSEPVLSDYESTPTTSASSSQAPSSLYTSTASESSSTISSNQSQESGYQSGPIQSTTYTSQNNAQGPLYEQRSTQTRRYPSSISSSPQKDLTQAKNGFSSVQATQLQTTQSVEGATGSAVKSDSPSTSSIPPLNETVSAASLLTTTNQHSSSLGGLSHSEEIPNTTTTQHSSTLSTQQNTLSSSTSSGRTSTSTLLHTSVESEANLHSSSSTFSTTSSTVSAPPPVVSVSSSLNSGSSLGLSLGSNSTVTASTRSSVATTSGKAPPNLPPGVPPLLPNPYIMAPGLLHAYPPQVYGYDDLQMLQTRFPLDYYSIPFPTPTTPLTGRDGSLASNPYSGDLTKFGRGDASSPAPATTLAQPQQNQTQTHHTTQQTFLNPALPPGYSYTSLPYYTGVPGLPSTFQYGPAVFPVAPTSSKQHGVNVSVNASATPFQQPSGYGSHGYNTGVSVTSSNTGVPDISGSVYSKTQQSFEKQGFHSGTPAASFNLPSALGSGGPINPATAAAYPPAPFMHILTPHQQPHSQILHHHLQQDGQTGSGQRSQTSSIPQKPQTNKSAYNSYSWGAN
UniProt Q9H892: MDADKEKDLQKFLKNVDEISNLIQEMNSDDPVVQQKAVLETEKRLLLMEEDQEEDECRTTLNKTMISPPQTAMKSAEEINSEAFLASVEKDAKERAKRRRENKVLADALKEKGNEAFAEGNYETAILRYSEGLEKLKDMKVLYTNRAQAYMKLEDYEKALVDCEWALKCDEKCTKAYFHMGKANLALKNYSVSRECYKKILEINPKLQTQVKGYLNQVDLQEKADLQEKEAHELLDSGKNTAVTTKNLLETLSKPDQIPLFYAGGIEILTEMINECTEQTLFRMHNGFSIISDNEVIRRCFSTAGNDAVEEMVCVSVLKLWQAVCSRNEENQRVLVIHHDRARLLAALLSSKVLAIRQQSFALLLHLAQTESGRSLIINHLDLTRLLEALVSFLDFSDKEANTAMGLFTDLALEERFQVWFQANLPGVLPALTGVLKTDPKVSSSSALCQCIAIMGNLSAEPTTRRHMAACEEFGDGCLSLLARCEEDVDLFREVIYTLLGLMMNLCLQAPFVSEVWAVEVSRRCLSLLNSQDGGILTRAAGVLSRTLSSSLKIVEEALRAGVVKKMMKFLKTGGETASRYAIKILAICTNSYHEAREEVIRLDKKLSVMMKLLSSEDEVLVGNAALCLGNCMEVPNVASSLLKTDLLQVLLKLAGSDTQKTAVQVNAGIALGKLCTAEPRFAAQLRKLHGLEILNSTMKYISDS
UniProt A6NNZ2, whole entry, looked up: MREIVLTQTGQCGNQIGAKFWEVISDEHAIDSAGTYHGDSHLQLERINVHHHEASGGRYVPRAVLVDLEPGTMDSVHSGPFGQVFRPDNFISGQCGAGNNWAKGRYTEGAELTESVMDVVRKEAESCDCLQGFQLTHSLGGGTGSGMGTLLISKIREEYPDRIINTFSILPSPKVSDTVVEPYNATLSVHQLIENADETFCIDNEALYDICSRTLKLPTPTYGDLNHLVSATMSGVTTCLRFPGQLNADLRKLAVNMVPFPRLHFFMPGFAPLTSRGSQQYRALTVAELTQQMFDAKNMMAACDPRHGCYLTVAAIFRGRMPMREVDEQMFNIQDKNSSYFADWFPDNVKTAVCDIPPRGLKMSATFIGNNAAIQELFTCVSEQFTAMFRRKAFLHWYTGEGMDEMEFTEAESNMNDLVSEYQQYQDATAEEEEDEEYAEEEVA

Legend:
Test in all cases: log2 fold change, soluble protein after heating vs DMSO (PISA); higher = thermal stabilisation; K562 cells, 10 uM, 30 min; active = over 0.2 and 3.5 SD of the protein, either way, in both replicates (recomputed)
[1] = compound: CS(=O)(=O)c1ccc(-c2cnc(N)c(C(=O)Nc3ccccc3)n2)cc1
In short: (§1)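 Soluble protein was defined as the supernatant after 21,000xg for 90 min. It came from K562 cells at 2×10^6 cells/mL given 10 μM compound for 30 min, heated in aliquots for 3 min across 48°C-58°C, pooled, and extracted in PBS with 0.5% NP-40 at 4°C, and was quantified by TMTpro 16plex LC-MS/MS with equalised channel sums. Thermal stability against control samples, from duplicates, is reported as log2 fold change.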

[2] = compound: C[C@@H](Oc1cc(-c2cnn(C3CCNCC3)c2)cnc1N)c1c(Cl)ccc(F)c1Cl [crizotinib]
In short: as §1

[3] = compound: C[C@@H]1COCCN1C2=NC(=NC(=C2)C3(CC3)S(=O)(=O)C)C4=C5C=CNC5=CC=C4
In short: as §1

[4] = compound: C[C@H](C1=CC=C(C=C1)C(=O)NC2=C3C=CNC3=NC=C2)N
In short: as §1

[5] = compound: C[C@H](Nc1ncnc2nc[nH]c12)c1cc2cccc(Cl)c2c(=O)n1-c1ccccc1 [duvelisib]
In short: as §1

[6] = compound: Cc1cc(Nc2cc(CN3CCOCC3)c3nc(C)c(Cc4ccc(Cl)cc4F)n3n2)n[nH]1 [gandotinib]
In short: as §1

[7] = compound: Cc1cc(Nc2cc(N3CCN(C)CC3)nc(Sc3ccc(NC(=O)C4CC4)cc3)n2)n[nH]1 [tozasertib]
In short: as §1

[8] = compound: Cc1cc(SCc2sc(-c3ccc(C(F)(F)F)cc3)nc2C)ccc1OCC(=O)O
In short: as §1

[9] = compound: Cc1ccc(-n2nc(C(C)(C)C)cc2NC(=O)Nc2ccc(OCCN3CCOCC3)c3ccccc23)cc1 [doramapimod]
In short: as §1

[10] = compound: Cc1ccc(C(=O)N(CCCN)[C@@H](c2nc3cc(Cl)ccc3c(=O)n2Cc2ccccc2)C(C)C)cc1 [ispinesib]
In short: as §1

| Target | log2 fold change [1] | log2 fold change [2] | log2 fold change [3] | log2 fold change [4] | log2 fold change [5] | log2 fold change [6] | log2 fold change [7] | log2 fold change [8] | log2 fold change [9] | log2 fold change [10] |
| --- | --- | --- | --- | --- | --- | --- | --- | --- | --- | --- |
| UBE2H (UniProt P62256) | inactive: -0.028 | inactive: 0.024 | inactive: 0.005 | inactive: -0.032 | inactive: 0.017 | inactive: -0.091 | inactive: 0.023 | inactive: -0.009 | inactive: -0.044 | inactive: 0.044 |
| UBE3A (UniProt Q05086) | inactive: 0.016 | inactive: -0.007 | inactive: 0.077 | inactive: -0.022 | inactive: 0.022 | inactive: -0.018 | inactive: 0.003 | inactive: 0.024 | inactive: -0.006 | inactive: 0.03 |
| TUFM (UniProt P49411) | inactive: 0.024 | inactive: 0.026 | inactive: 0.152 | inactive: -0.096 | inactive: 0.071 | inactive: -0.121 | inactive: -0.012 | inactive: 0.034 | inactive: -0.054 | inactive: -0.183 |
| TSPAN14 (UniProt Q8NG11) | inactive: 0.074 | inactive: 0.137 | inactive: 0.131 | inactive: -0.084 | inactive: 0.128 | inactive: -0.146 | inactive: -0.053 | inactive: -0.035 | inactive: 0.006 | inactive: -0.063 |
| TSR3 (UniProt Q9UJK0) | inactive: -0.018 | inactive: 0.086 | inactive: 0.105 | inactive: 0.083 | inactive: 0.029 | inactive: 0.015 | inactive: -0.043 | inactive: -0.061 | inactive: 0.003 | inactive: -0.043 |
| TUBE1 (UniProt Q9UJT0) | inactive: 0.003 | inactive: 0.019 | inactive: -0.085 | inactive: -0.047 | inactive: 0.045 | inactive: 0.032 | inactive: -0.076 | inactive: -0.005 | inactive: -0.01 | inactive: 0.006 |
| TSTA3 (UniProt Q13630) | inactive: -0.01 | inactive: 0.041 | inactive: 0.062 | inactive: -0.056 | inactive: 0.024 | inactive: -0.031 | inactive: -0.042 | inactive: -0.034 | inactive: -0.024 | inactive: -0.011 |
| TSN (UniProt Q15631) | inactive: -0.072 | inactive: 0.022 | inactive: 0.047 | inactive: -0.013 | inactive: 0.055 | inactive: -0.041 | inactive: 0.018 | inactive: 0 | inactive: 0.018 | inactive: 0.084 |
| TUBA1B (UniProt P68363) | inactive: 0.015 | inactive: -0.171 | inactive: 0.058 | inactive: -0.025 | inactive: 0.036 | inactive: -0.03 | inactive: -0.067 | inactive: -0.006 | inactive: 0.003 | inactive: -0.005 |
| UBE2V2 (UniProt Q15819) | inactive: 0.032 | inactive: 0.039 | inactive: 0.089 | inactive: -0.044 | inactive: 0.039 | inactive: 0.029 | inactive: 0.004 | inactive: -0.012 | inactive: -0.031 | inactive: 0.013 |
| TYW3 (UniProt Q6IPR3) | inactive: 0.009 | inactive: -0.022 | inactive: -0.04 | inactive: 0.114 | inactive: -0.124 | inactive: 0.04 | inactive: 0.02 | inactive: -0.074 | inactive: 0.021 | inactive: -0.146 |
| UBE2L3 isoform 3 (UniProt P68036) | inactive: 0.052 | inactive: 0.004 | inactive: -0.025 | inactive: -0.094 | inactive: 0.032 | inactive: 0.016 | inactive: 0.007 | inactive: -0.015 | inactive: -0.022 | inactive: 0.035 |
| TTN isoform 12 (UniProt Q8WZ42) | inactive: 0.116 | inactive: 0.068 | inactive: 0.034 | inactive: 0.219 | inactive: 0.274 | inactive: -0.008 | inactive: -0.134 | inactive: -0.134 | inactive: -0.053 | inactive: -0.114 |
| TTF2 (UniProt Q9UNY4) | inactive: -0.088 | inactive: -0.037 | inactive: 0.174 | inactive: 0.439 | inactive: -0.173 | inactive: 0.106 | inactive: 0.003 | inactive: -0.081 | inactive: 0.18 | inactive: -0.269 |
| U2SURP (UniProt O15042) | inactive: -0.024 | inactive: -0.145 | inactive: 0.062 | inactive: -0.01 | inactive: 0.011 | inactive: -0.035 | inactive: 0.111 | inactive: 0.064 | inactive: -0.034 | inactive: -0.034 |
| TTC27 (UniProt Q6P3X3) | inactive: 0.034 | inactive: -0.237 | inactive: -0.072 | inactive: 0.27 | inactive: -0.132 | inactive: -0.002 | inactive: 0.085 | inactive: 0.222 | inactive: 0.17 | inactive: -0.213 |

| Target | log2 fold change [1] | log2 fold change [2] | log2 fold change [3] | log2 fold change [4] | log2 fold change [5] | log2 fold change [6] | log2 fold change [7] | log2 fold change [8] | log2 fold change [9] | log2 fold change [10] |
| --- | --- | --- | --- | --- | --- | --- | --- | --- | --- | --- |
| UBE2B (UniProt P63146) | inactive: 0.02 | inactive: 0.046 | inactive: 0.059 | inactive: 0.019 | inactive: -0.039 | inactive: -0.255 | inactive: -0.028 | inactive: 0.173 | inactive: 0.044 | inactive: 0.042 |
| TSSC4 (UniProt Q9Y5U2) | inactive: -0.036 | inactive: 0.089 | inactive: -0.005 | inactive: 0.09 | inactive: -0.176 | inactive: 0.136 | inactive: 0.005 | inactive: 0.05 | inactive: 0.022 | inactive: -0.131 |
| UBA5 (UniProt Q9GZZ9) | inactive: 0.046 | inactive: -0.02 | inactive: 0.026 | inactive: 0.019 | inactive: 0.041 | inactive: -0.071 | inactive: -0.025 | inactive: -0.005 | inactive: -0.089 | inactive: 0.084 |
| TXN (UniProt P10599) | inactive: 0.009 | inactive: 0.014 | inactive: -0.047 | inactive: -0.061 | inactive: -0.033 | inactive: -0.018 | inactive: -0.028 | inactive: -0.079 | inactive: -0.016 | inactive: 0.019 |
| TXLNG (UniProt Q9NUQ3) | inactive: -0.018 | inactive: 0.015 | inactive: 0.065 | inactive: -0.004 | inactive: 0.019 | inactive: 0.005 | inactive: -0.039 | inactive: -0.02 | inactive: -0.048 | inactive: 0.056 |
| TWF1 (UniProt Q12792) | inactive: 0.039 | inactive: 0 | inactive: 0.111 | inactive: 0.007 | inactive: -0.007 | inactive: -0.047 | inactive: 0.033 | inactive: 0.036 | inactive: -0.053 | inactive: 0.142 |
| TTC4 (UniProt O95801) | inactive: 0.046 | inactive: -0.001 | inactive: 0.017 | inactive: 0.029 | – | inactive: -0.025 | – | inactive: 0.134 | inactive: -0.028 | inactive: 0.108 |
| UBAP2L isoform 5 (UniProt Q14157) | inactive: -0.028 | inactive: 0.051 | inactive: -0.07 | inactive: -0.007 | – | inactive: 0.007 | – | inactive: 0.016 | inactive: -0.038 | inactive: 0.026 |
| TTC12 isoform 2 (UniProt Q9H892) | inactive: -0.043 | inactive: -0.04 | inactive: -0.318 | inactive: 0.368 | inactive: -0.143 | – | inactive: 0.033 | inactive: 0.017 | inactive: 0.19 | inactive: -0.078 |
| TXNIP (UniProt Q9H3M7) | inactive: 0.05 | inactive: -0.36 | inactive: -0.103 | inactive: -0.188 | – | inactive: -0.068 | – | inactive: 0.01 | inactive: 0.113 | inactive: -0.087 |
| TUBA4A (UniProt P68366) | inactive: 0.004 | inactive: -0.11 | inactive: 0.099 | inactive: -0.054 | – | inactive: 0.014 | – | inactive: 0.208 | inactive: 0.008 | inactive: 0.009 |
| TUBB4A (UniProt P04350) | inactive: 0.04 | inactive: -0.181 | inactive: -0.009 | inactive: -0.012 | inactive: 0.125 | – | inactive: -0.028 | inactive: 0.045 | inactive: 0.021 | inactive: 0.044 |
| TUBB8B (UniProt A6NNZ2) | inactive: -0.078 | inactive: -0.182 | inactive: 0.017 | inactive: -0.061 | – | – | inactive: -0.19 | – | inactive: 0 | inactive: -0.014 |
| TSFM (UniProt P43897) | inactive: -0.083 | inactive: 0.171 | inactive: 0.152 | inactive: -0.104 | – | inactive: -0.083 | – | inactive: 0.095 | inactive: -0.095 | active: 0.398 |
| TYW1 (UniProt Q9NV66) | inactive: 0.038 | inactive: 0.143 | inactive: 0.032 | inactive: 0.053 | – | inactive: -0.004 | – | inactive: 0.021 | inactive: 0.008 | inactive: 0.179 |

At a glance, part of the list above:

| Target | log2 fold change [1] | log2 fold change [2] | log2 fold change [3] | log2 fold change [4] | log2 fold change [5] | log2 fold change [6] | log2 fold change [7] | log2 fold change [8] | log2 fold change [9] | log2 fold change [10] |
| --- | --- | --- | --- | --- | --- | --- | --- | --- | --- | --- |
| TTC4 (UniProt O95801) | inactive: 0.046 | inactive: -0.001 | inactive: 0.017 | inactive: 0.029 | – | inactive: -0.025 | – | inactive: 0.134 | inactive: -0.028 | inactive: 0.108 |
| UBAP2L isoform 5 (UniProt Q14157) | inactive: -0.028 | inactive: 0.051 | inactive: -0.07 | inactive: -0.007 | – | inactive: 0.007 | – | inactive: 0.016 | inactive: -0.038 | inactive: 0.026 |
